Measurements from paper PMC7156461.
These are yes or no findings as the source states them, for the method shown. Binding seen in cells or lysates may run through a third protein. Binding can be weak; no strength is given. Sequences can lack the tags named with a protein.

Molecular target: T1, Myc-HopQ N90, containing only an N-terminal 90 amino-acid region (Pseudomonas syringae pv. tomato DC3000) (UniProt Q888Y7)
T1 sequence: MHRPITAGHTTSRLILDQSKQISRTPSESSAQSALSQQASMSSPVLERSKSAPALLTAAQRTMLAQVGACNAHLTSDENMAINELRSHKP
Assay: co-IP; whole-cell lysates of transfected B16F10 cells, IP with anti-Myc antibody on magnetic beads, immunoblot of the endogenous partner (anti-14-3-3 or anti-p62)

## 14-3-3 protein (mouse (endogenous in B16F10))
  binding: binds
